For the test, the target named is T1, His6-tagged Pol III subunit C128 (strain for Pol III Δ) (S. cerevisiae) (UniProt P22276).
T1 sequence: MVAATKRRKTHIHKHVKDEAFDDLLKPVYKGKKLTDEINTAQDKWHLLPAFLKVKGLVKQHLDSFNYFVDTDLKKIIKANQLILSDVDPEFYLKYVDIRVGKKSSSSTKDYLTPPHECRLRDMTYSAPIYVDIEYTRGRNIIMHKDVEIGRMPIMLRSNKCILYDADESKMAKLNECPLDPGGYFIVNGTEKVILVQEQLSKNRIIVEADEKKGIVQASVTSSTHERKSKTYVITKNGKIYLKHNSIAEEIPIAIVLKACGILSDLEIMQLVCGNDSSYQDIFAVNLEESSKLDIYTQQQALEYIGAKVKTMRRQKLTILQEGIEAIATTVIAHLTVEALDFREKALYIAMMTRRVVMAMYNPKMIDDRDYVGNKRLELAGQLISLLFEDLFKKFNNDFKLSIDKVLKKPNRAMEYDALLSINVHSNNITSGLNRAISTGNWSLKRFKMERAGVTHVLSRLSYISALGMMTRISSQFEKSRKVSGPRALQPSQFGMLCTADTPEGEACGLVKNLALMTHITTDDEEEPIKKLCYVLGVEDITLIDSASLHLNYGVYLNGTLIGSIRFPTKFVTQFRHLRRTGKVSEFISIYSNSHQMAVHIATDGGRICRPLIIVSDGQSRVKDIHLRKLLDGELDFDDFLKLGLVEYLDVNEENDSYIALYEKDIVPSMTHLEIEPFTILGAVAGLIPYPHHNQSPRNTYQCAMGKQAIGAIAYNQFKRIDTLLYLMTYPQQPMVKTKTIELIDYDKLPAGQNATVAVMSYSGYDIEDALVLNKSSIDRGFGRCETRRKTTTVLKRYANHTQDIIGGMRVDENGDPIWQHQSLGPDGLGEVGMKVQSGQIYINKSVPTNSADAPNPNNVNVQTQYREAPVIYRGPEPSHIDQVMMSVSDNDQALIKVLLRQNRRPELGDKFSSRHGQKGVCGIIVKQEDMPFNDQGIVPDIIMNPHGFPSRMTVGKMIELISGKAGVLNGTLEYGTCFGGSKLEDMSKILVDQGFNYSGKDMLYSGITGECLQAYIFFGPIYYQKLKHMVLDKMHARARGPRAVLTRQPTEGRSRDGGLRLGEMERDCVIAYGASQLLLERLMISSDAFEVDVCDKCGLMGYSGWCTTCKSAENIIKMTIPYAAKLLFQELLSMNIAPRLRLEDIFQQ
In words: affinity purification of the endogenous complex.

Results are given in words; binding and its absence hold for the method and conditions named. Tags and fused reporters may be left off the sequences shown.

B1: S. pombe C11 (protein, UniProt O13896 1-109)
chain: MQFCPTCGNHLIVAVDEEGRNAFDCRTCPYHFPISTFLYSRHEFAQKEVDDVLGGEEAFESNQQTEVTCENTKCDNNRAYFFQLQIRSADEPMSTFYRCTKCKFQWREN
Regarding B1, the binding entry is listed as “no binding”.

For the origin of these results see article doi:10.1101/2022.02.28.482286 (bioRxiv, 2022).
